No constants are given. Whether binding was seen depends on the method and setting. In cells and extracts the contact can be indirect. Binding calls can cover weak binding; strength is not graded here.

Amino acid sequences for entries named in this document (tags omitted). A change or cut given only in a name is not applied to a line headed by its entry.
UniProt Q96RU2, whole entry, stated change not applied: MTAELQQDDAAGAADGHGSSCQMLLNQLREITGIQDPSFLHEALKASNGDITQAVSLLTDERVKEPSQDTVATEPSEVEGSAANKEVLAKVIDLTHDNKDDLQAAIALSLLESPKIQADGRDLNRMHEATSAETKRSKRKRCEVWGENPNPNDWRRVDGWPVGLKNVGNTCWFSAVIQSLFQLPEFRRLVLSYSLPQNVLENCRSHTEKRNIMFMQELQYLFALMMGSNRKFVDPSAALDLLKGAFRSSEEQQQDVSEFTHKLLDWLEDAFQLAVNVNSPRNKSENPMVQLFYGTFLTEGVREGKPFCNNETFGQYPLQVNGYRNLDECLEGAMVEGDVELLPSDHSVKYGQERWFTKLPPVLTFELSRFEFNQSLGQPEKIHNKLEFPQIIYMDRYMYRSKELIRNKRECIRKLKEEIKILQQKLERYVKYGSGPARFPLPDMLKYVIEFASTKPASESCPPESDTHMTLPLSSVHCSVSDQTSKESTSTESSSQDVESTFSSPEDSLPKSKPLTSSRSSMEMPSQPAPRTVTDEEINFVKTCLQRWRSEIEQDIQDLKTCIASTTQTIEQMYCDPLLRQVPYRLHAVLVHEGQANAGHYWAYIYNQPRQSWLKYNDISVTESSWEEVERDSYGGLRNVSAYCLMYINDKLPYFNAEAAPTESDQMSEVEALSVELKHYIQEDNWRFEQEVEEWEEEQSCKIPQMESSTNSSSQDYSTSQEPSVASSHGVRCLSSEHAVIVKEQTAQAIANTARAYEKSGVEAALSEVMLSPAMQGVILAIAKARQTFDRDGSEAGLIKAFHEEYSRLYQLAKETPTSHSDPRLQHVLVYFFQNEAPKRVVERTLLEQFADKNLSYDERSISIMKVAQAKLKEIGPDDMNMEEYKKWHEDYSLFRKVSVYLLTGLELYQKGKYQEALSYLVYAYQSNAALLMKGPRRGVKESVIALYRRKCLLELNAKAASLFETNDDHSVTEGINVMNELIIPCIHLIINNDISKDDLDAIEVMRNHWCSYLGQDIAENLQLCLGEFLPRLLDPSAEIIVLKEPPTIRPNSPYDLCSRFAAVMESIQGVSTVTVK

This experiment has as its target HA-tagged USP28 (UniProt Q96RU2). Kind of experiment: co-IP.

Turning to “FLAG-tagged ΔNp63 (from UniProt Q9H3D4-2)”, the binding entry is “binds”.

Values taken from publication doi:10.1101/683508.
